Experimental data: PubChem BioAssay AID1259425 (University of Nebraska Medical Center, 2018)
The whole screen tested about 14,000 reagents; below is a part drawn at random. Further read-outs or replicates are left out here. The record does not give: the time to read-out.

Screen: 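Seek colon cancer weak points whose silencing resembles KSR1 loss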 (primary screen)
Cells: HCT116 human colon cancer cells
Reagents: siRNA pool against human genes, 50 nM siRNA
Measurement: 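mRNA of six signature genes measured together by branched-DNA assay after 50 nM siRNA pool, blank removed, divided by geometric mean of two housekeeping genes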
Reading the numbers: BNIP3L mRNA: higher = more BNIP3L transcript after knockdown

AP2A1 → BNIP3L mRNA, set 1: 0.138
CFAP263 → BNIP3L mRNA, set 1: 0.074
FLII → BNIP3L mRNA, set 1: 0.125
GH2 → BNIP3L mRNA, set 1: 0.0555
ADD1 → BNIP3L mRNA, set 1: 0.162
MAP3K21 → BNIP3L mRNA, set 1: 0.0956

2 entries already listed, ordered by “BNIP3L mRNA, set 1”, lowest first.
GH2 → BNIP3L mRNA, set 1: 0.0555
FLII → BNIP3L mRNA, set 1: 0.125

The list goes on.
TPX2 → BNIP3L mRNA, set 1: 0.159
MAT2A → BNIP3L mRNA, set 1: 0.047
SEC63 → BNIP3L mRNA, set 1: 0.0537
PNISR → BNIP3L mRNA, set 1: 0.138
CD177 → BNIP3L mRNA, set 1: 0.139
ACADM → BNIP3L mRNA, set 1: 0.176
